Data as given in PubChem BioAssay AID1224826 (NIAID, 2016).

Test: 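Knock-downs that raise or lower Tnf reporter signal after endotoxin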 (primary screen)
Cells: RAW264.7 G9 macrophages from mouse bearing reporters for p65 (GFP) and the Tnf promoter (mCherry)
Knock-down reagent: siRNA pool against mouse genes, 100 nM
Time to read-out: 16 h of LPS stimulation, after 2 days of siRNA transfection
Treatment: bacterial lipopolysaccharide (Salmonella minnesota R595), 10 ng/ml
Read-out: 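Nuclear mCherry signal of the Tnf promoter reporter measured by imaging after background removal, scaled to each plate median and turned into robust z-scores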
Scale: Tnf reporter robust z-score: higher = stronger Tnf promoter reporter signal after LPS; Tnf reporter intensity: higher = stronger Tnf promoter reporter signal
Hit rule: 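a well counts as active at a score of -1.3 or below (Tlr4 knock-down control median) or above 3 (raised signal); controls and wells holding fewer than 50 cells are excluded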
Meaning of the calls: active = Tnf reporter clearly lowered or raised; inactive = no clear change in Tnf reporter
Shown is an unselected part of about 17,000 reagents. About 1,110 of all reagents (6.6%) count as active. 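Active means lowered or raised reporter signal; replicate intensities are raw and not normalised per plate.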 Further read-outs or replicates are left out here. No sequences are given here.

| target gene | PubChem SID | Tnf reporter robust z-score | fewer than 50 cells in well | Tnf reporter intensity, replicate 1 | call |
| --- | --- | --- | --- | --- | --- |
| Rcsd1 (GeneID 226594) | SID315478515 | 0.47 | enough cells in well | 273 | inactive |
| Trappc4 (GeneID 60409) | SID315472014 | 2.72 | enough cells in well | 208 | inactive |
| Cyp4v3 (GeneID 102294) | SID315476325 | 0.08 | enough cells in well | 226 | inactive |
| Klra23 (GeneID 79410) | SID315475675 | -0.19 | enough cells in well | 217 | inactive |
| Pld2 (GeneID 18806) | SID315468581 | 0.03 | enough cells in well | 156 | inactive |
| Teddm3 (GeneID 66561) | SID315472510 | – | fewer than 50 cells per well; well left out of calls | 95.1 | inactive |
| Rbm12 (GeneID 75710) | SID315475183 | – | fewer than 50 cells per well; well left out of calls | 41 | inactive |
| Xrcc2 (GeneID 57434) | SID315471787 | 0.39 | enough cells in well | 281 | inactive |
| Fxr2 (GeneID 23879) | SID315470212 | 0.16 | enough cells in well | 280 | inactive |
| Edem2 (GeneID 108687) | SID315476728 | -0.05 | enough cells in well | 168 | inactive |
| Ube2g2 (GeneID 22213) | SID315469910 | 1.39 | enough cells in well | 325 | inactive |
| AI931714 | SID315482025 | 0.62 | enough cells in well | 319 | inactive |
| Vpreb1a (GeneID 22362) | SID315470011 | -1.14 | enough cells in well | 144 | inactive |
| Ly96 (GeneID 17087) | SID315467791 | -1.16 | enough cells in well | 119 | inactive |
| S1pr1 (GeneID 13609) | SID315466432 | -0.69 | enough cells in well | 136 | inactive |
| Spryd7 (GeneID 66674) | SID315472578 | 0.42 | enough cells in well | 208 | inactive |
| Rap1b (GeneID 215449) | SID315477932 | -0.21 | enough cells in well | 287 | inactive |

5 entries already listed, arranged by “Tnf reporter intensity, replicate 1”, ascending:
| target gene | PubChem SID | Tnf reporter robust z-score | fewer than 50 cells in well | Tnf reporter intensity, replicate 1 | call |
| --- | --- | --- | --- | --- | --- |
| Rbm12 (GeneID 75710) | SID315475183 | – | fewer than 50 cells per well; well left out of calls | 41 | inactive |
| Teddm3 (GeneID 66561) | SID315472510 | – | fewer than 50 cells per well; well left out of calls | 95.1 | inactive |
| Pld2 (GeneID 18806) | SID315468581 | 0.03 | enough cells in well | 156 | inactive |
| Klra23 (GeneID 79410) | SID315475675 | -0.19 | enough cells in well | 217 | inactive |
| Cyp4v3 (GeneID 102294) | SID315476325 | 0.08 | enough cells in well | 226 | inactive |

Next records follow:
| target gene | PubChem SID | Tnf reporter robust z-score | fewer than 50 cells in well | Tnf reporter intensity, replicate 1 | call |
| --- | --- | --- | --- | --- | --- |
| Tmem150c (GeneID 231503) | SID315478896 | 2.81 | enough cells in well | 214 | inactive |
| Rab11fip4 (GeneID 268451) | SID315480770 | 0.36 | enough cells in well | 167 | inactive |
| Mafa (GeneID 378435) | SID315481740 | 0.11 | enough cells in well | 211 | inactive |
| Zp2 (GeneID 22787) | SID315470163 | 0.91 | enough cells in well | 370 | inactive |
| Stat4 (GeneID 20849) | SID315469486 | -1.12 | enough cells in well | 182 | inactive |
| Or2ag16 (GeneID 258595) | SID315480258 | 0.94 | enough cells in well | 94.9 | inactive |
| Gabarap (GeneID 56486) | SID315471567 | -0.01 | enough cells in well | 303 | inactive |
| Mtfr1 (GeneID 67472) | SID315473051 | 0.88 | enough cells in well | 403 | inactive |
| Elavl3 (GeneID 15571) | SID315467352 | -0.49 | enough cells in well | 176 | inactive |
| Ovol2 (GeneID 107586) | SID315476622 | 1.25 | enough cells in well | 235 | inactive |
| Wt1 (GeneID 22431) | SID315470054 | -0.14 | enough cells in well | 230 | inactive |
| Tmed2 (GeneID 56334) | SID315471464 | 0.7 | enough cells in well | 345 | inactive |
| Tpbg (GeneID 21983) | SID315469798 | 0.97 | enough cells in well | 322 | inactive |
| Mon2 (GeneID 67074) | SID315472819 | – | fewer than 50 cells per well; well left out of calls | 143 | inactive |
| Col26a1 (GeneID 140709) | SID315477140 | 2.51 | enough cells in well | 342 | inactive |
| Tnpo1 (GeneID 238799) | SID315479406 | -0.09 | enough cells in well | 225 | inactive |
| Spdye4b (GeneID 330228) | SID315481582 | – | fewer than 50 cells per well; well left out of calls | 111 | inactive |
| Phkg1 (GeneID 18682) | SID315468497 | 0.11 | enough cells in well | 185 | inactive |
| Klhl38 (GeneID 268807) | SID315480800 | -0.6 | enough cells in well | 160 | inactive |
| Btnl1 (GeneID 100038862) | SID315479483 | 0.8 | enough cells in well | 307 | inactive |
| Ywhaq (GeneID 22630) | SID315470080 | -0.33 | enough cells in well | 186 | inactive |
| Gm9725 (GeneID 105243233) | SID315474131 | 1.09 | enough cells in well | 234 | inactive |
| Spn (GeneID 20737) | SID315469429 | -0.06 | enough cells in well | 272 | inactive |
